This assay concerns the target T1, extracellular domain of mouse IL12RB1 (mIL12Rb1 ECD) (mouse) (UniProt Q60837).
T1 sequence: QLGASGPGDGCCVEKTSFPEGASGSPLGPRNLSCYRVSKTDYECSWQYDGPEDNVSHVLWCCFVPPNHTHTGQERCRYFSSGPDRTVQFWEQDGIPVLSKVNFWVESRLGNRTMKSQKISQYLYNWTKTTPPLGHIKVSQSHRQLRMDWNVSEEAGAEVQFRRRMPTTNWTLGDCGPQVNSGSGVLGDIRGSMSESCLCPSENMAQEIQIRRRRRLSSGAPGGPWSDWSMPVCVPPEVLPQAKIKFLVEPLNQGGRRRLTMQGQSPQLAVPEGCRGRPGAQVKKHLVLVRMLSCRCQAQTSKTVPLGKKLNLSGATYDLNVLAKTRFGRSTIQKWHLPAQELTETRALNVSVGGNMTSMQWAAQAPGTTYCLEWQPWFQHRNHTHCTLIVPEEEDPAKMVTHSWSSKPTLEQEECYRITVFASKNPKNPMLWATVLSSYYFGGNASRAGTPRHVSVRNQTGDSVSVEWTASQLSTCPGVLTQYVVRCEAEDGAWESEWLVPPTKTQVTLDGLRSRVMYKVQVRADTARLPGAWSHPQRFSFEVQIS
Description: periplasmic extract ELISA (PE-ELISA) of phage clones, colorimetric. Background: In an ELISA, binding on a coated surface is turned into a signal by an enzyme label.

Results are given in words; binding and its absence hold for the method and conditions named. Some entries that bind do so weakly or less than the wild type.

B1: mIL12Rb1_VHH14 (VHH)
VHH: QVQLQESGGGSVQAGGSLRLSCAVSGYDYCGYDVRWYRQAPGKEREFVSGINSDGSTSYADSVKGRFTISQDNAENTSYLHMFSLKPEDTAMYYCKTESPAGESAWCRNFRGMDYWGKGTQVTVSS
Consider B1, for which the binding result is “binds”.

The values above are taken from US20230279126A1.
